Data: patent publication US11674120B2, “Methods, kits, and compositions for enhancing cellular therapy” (University of Florida Research Foundation, Incorporated, priority 2016, dated 2023)

Tested on: dendritic cell (DC)
Experiment: Sarcosine Assay kit: amount of sarcosine per cell in DCs
Format: cell-based

`CNCC(=O)O` [sarcosine, N-methylglycine] was tested. Which “Amount of sarcosine per cell compared with cells cultured in 20 mM sarcosine” value (DCs cultured in 20 mM sarcosine, then electroporated at 300V) did it give?
Its value is “neither electroporation with 0.5 mM sarcosine nor electroporation with siRNA against SARDH increased the amount of sarcosine per cell”.

And the “Intracellular level of sarcosine in a dendritic cell” value (physiological level, no sarcosine treatment)?
Its value is 0.13±0.06 pg/cell.
